Measured values published in PMC6327479.

System: T1, HicB RHH1 domain-6His (Sinorhizobium meliloti)
T1 sequence (looked up, limits assumed): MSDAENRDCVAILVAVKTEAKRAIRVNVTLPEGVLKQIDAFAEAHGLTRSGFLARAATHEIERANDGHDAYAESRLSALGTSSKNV
Assay: EMSA
Conditions: 0-5 uM RHH, stated to bind as efficiently as HicB; EMSA: 10 mM Tris-HCl pH 7.5, 50 mM NaCl, 1 mM DTT, 300 ug/ml BSA, 20 ul, 30 min at 25 C; 5% native PAGE in TAE pH 7.5; recombinant protein; protein details: C-terminal 6His; label: [alpha-32P]dCTP, internal by PCR; probe letters rebuilt from the primers and the genome

Sequence: GATCCGACGGTTCGAGACCATCCGAGAAAGCCGCCTTAGATTGGCTTGACAAATTCATTGGACGAATACACATGCGTGTGTATTGTCGTATCAGATGAAGAGCGGCGACATTATTGCAGCATTGCAGAAGGACGGATGGTACGAGGTTGCGACCAAGGGCAGCCACGTTCAATTCAAACATCCGAAAAAGCACGGCCGGGTTACCGTTCCTCACCCGAAGA (double strand) [hicAB promoter fragment]
- binding result: binds

For at least one entry, the source does not settle the construct or the ends of the probe. Protein sequences can lack the tags named with them.
